# Test results as given in the supplement of paper PMC10849652.
# Sequences of proteins named here, by UniProt entry; tags and fusion partners are left off. A change or cut given only in a name is not applied to a line headed by its entry.
# UniProt Q8TBF2: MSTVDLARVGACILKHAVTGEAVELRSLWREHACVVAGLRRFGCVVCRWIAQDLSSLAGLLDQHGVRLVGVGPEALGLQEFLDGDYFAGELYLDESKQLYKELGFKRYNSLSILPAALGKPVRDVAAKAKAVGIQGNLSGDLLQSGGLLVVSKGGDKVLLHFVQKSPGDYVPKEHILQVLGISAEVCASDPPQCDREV
# UniProt Q9H7Z7: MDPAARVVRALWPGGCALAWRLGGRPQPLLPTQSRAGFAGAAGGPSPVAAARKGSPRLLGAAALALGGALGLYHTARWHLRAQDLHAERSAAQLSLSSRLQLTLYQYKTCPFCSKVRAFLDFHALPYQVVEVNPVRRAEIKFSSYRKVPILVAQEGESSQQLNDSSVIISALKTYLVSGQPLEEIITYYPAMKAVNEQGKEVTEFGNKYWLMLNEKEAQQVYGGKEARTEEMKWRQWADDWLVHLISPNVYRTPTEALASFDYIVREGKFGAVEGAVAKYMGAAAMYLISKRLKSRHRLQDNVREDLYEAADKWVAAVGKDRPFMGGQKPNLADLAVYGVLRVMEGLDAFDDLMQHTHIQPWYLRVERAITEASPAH
# UniProt Q9H939: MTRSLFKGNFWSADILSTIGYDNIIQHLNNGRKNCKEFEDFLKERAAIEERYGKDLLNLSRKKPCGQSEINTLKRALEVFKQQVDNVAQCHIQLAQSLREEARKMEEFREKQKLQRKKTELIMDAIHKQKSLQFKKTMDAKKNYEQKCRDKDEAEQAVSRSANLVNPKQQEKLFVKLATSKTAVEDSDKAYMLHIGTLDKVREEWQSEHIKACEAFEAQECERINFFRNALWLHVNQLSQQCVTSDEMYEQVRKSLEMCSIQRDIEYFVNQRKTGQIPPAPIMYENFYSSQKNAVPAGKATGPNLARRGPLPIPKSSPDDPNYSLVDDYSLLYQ
# UniProt Q7Z6K3: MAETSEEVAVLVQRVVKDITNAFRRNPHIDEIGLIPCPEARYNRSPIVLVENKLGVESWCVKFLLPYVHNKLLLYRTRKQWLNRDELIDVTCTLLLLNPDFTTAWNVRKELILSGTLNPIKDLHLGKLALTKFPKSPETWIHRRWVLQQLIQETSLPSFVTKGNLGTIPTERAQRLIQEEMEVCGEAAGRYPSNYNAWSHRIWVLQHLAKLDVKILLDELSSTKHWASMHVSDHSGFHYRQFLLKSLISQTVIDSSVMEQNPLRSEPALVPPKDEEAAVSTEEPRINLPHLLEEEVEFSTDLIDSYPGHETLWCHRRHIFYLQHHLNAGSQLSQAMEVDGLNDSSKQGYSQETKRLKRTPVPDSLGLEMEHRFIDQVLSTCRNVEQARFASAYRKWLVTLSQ
# UniProt Q6ZRP7: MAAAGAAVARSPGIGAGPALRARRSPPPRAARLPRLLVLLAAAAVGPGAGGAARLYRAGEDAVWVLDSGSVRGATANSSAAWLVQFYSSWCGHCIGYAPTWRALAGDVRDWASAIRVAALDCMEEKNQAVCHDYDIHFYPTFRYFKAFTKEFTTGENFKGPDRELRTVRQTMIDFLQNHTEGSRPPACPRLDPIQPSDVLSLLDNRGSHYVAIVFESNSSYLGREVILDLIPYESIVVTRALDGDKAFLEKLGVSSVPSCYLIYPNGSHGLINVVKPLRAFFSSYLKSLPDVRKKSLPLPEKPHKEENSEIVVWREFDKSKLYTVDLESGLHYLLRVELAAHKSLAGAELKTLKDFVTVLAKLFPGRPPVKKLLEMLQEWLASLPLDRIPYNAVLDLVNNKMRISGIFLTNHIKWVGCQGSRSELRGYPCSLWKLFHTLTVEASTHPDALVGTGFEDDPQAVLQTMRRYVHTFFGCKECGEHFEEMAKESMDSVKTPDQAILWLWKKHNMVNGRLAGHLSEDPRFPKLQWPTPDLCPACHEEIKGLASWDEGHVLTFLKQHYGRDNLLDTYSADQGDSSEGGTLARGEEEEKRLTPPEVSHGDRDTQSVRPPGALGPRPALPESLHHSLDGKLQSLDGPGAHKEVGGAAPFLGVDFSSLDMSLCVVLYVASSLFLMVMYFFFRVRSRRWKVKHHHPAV
# UniProt Q9NRG1: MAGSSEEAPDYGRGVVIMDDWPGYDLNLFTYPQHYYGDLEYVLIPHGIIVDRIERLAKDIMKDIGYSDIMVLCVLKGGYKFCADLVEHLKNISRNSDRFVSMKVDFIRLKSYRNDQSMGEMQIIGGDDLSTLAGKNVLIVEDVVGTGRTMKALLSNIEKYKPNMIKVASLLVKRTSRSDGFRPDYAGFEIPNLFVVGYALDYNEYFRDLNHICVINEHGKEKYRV
# UniProt Q8TB72: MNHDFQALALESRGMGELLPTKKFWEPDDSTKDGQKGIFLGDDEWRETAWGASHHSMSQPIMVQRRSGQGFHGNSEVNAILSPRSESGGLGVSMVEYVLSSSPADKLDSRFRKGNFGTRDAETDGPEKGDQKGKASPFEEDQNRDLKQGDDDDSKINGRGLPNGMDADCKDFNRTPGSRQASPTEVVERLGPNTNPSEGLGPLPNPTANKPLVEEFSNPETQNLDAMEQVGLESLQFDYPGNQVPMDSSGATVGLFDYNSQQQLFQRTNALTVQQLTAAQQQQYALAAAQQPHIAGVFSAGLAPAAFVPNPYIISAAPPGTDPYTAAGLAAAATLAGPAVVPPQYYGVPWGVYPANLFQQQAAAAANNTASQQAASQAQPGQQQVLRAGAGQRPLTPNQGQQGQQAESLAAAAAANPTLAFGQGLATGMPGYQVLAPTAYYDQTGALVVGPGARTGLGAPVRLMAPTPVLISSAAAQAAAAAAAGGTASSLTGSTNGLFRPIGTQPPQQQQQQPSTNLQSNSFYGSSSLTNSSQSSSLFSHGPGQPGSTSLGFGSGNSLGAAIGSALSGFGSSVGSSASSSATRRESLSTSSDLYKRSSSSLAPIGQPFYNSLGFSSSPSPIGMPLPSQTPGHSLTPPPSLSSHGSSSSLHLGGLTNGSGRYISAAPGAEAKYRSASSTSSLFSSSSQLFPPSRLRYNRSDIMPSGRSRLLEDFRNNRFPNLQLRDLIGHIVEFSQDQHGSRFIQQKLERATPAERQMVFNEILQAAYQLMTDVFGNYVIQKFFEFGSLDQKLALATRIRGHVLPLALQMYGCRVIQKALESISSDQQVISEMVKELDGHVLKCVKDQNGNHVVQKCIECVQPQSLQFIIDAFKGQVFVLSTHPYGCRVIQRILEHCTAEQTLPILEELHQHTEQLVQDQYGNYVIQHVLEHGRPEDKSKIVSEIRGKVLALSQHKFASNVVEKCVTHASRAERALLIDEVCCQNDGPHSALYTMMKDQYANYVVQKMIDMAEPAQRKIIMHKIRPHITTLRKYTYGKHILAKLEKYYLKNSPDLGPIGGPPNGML
# UniProt P20962: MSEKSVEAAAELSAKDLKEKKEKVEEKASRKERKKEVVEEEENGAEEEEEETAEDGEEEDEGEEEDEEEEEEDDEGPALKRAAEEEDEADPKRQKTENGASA
# UniProt O75475: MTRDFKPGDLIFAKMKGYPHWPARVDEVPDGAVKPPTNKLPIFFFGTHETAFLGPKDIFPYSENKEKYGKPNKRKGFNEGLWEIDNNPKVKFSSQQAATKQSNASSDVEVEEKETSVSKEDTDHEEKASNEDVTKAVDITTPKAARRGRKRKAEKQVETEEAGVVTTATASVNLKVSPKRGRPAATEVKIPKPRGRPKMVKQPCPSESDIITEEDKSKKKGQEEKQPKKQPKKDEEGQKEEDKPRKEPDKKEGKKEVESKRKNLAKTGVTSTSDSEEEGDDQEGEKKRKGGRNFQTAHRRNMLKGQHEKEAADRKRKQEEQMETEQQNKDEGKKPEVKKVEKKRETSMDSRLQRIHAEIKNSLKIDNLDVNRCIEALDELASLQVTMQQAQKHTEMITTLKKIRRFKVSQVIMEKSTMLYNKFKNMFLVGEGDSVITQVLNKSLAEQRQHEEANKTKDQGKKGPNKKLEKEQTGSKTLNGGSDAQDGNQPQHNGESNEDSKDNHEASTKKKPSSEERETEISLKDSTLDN
# UniProt Q9Y617: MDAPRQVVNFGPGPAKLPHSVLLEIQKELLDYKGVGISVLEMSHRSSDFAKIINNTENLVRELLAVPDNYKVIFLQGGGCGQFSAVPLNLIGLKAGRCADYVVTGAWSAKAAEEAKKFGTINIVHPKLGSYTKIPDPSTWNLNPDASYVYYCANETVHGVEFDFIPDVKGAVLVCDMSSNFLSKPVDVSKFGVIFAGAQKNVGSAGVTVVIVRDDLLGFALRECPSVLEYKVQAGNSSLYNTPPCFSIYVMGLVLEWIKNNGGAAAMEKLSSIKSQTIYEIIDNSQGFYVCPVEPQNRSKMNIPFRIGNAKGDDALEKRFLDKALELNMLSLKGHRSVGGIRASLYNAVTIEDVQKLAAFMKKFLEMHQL
# UniProt Q9UL46, whole entry, looked up: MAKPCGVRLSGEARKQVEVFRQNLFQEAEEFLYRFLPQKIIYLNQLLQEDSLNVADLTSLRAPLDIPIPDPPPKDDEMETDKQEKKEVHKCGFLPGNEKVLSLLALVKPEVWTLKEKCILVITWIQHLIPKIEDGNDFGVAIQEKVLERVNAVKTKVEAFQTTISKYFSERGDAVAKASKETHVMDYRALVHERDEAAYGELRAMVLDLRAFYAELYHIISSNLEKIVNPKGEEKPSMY
# UniProt Q93096: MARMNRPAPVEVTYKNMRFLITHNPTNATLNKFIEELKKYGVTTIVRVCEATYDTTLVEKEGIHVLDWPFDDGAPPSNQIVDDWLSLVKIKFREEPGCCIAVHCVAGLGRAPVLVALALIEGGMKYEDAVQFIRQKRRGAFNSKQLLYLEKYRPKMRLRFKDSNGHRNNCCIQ
# UniProt P78330: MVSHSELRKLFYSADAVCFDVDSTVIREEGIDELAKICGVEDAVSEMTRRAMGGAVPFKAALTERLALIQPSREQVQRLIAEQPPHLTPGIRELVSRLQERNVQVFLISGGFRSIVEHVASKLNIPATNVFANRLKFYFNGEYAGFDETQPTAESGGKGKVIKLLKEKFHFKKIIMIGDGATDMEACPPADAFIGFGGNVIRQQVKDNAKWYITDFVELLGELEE
# UniProt Q96PZ0: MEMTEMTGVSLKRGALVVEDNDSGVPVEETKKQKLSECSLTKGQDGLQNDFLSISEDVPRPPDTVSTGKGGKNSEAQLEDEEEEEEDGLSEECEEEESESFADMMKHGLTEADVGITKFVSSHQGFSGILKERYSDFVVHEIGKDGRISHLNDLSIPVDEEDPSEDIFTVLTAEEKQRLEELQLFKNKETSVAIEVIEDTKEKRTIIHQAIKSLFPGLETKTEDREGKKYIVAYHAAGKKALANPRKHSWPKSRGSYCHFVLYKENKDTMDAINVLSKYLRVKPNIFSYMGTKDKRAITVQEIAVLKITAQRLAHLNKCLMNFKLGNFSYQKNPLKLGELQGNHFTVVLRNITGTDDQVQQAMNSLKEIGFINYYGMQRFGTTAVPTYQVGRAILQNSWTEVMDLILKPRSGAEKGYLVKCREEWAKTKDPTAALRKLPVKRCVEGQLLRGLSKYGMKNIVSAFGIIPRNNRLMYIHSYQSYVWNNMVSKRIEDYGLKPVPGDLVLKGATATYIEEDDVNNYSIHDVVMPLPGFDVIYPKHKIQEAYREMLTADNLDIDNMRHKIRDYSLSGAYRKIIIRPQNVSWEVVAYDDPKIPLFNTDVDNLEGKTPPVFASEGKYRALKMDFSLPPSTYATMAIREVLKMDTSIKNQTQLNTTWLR
# UniProt Q08623: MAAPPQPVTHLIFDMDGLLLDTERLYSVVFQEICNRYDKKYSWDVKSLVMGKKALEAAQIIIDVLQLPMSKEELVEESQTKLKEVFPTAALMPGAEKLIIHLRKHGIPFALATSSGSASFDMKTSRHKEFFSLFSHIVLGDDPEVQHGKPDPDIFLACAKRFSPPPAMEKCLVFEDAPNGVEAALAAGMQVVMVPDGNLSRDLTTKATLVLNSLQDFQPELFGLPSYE
# This is one part of the list.
# How the values were obtained:
# Assay in all cases: log2 fold change, soluble protein after heating vs DMSO (PISA); higher = thermal stabilisation; K562 cells, 10 uM, 30 min; active = over 0.2 and 3.5 SD of the protein, either way, in both replicates (recomputed)
# saracatinib = compound: CN1CCN(CCOc2cc(OC3CCOCC3)c3c(Nc4c(Cl)ccc5c4OCO5)ncnc3c2)CC1 [saracatinib]
# Method in brief: (§1)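 For each measurement, 10 μM compound was applied for 30 min to K562 cells at 2×10^6 cells/mL. Aliquots were heated for 3 min across 48°C-58°C, pooled, and extracted in PBS with 0.5% NP-40 at 4°C; the supernatant after 21,000xg for 90 min was soluble protein. This was quantified by TMTpro 16plex LC-MS/MS with channel sums equalised, and thermal stability was reported relative to control samples from duplicates, on a log2 fold-change scale.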
# sotrastaurin = compound: CN1CCN(c2nc(C3=C(c4c[nH]c5ccccc45)C(=O)NC3=O)c3ccccc3n2)CC1 [sotrastaurin]
# Method in brief: as §1
# alvocidib = compound: CN1CC[C@H](c2c(O)cc(O)c3c(=O)cc(-c4ccccc4Cl)oc23)[C@H](O)C1 [alvocidib]
# Method in brief: as §1
# Tubastatin A = compound: CN1CCc2c(c3ccccc3n2Cc2ccc(C(=O)NO)cc2)C1 [Tubastatin A]
# Method in brief: as §1
# [1] = compound: CNC(=O)C1=CC=CC=C1NC2=NC(=NC=C2Cl)NC3=C(C=C(C=C3)N4CCOCC4)OC
# Method in brief: as §1
# defactinib = compound: CNC(=O)c1ccc(Nc2ncc(C(F)(F)F)c(NCc3nccnc3N(C)S(C)(=O)=O)n2)cc1 [defactinib]
# Method in brief: as §1
# rucaparib = compound: CNCc1ccc(-c2[nH]c3cc(F)cc4c3c2CCNC4=O)cc1 [rucaparib]
# Method in brief: as §1
# [2] = compound: CNc1nc(-c2ccc3c(N)n[nH]c3c2)cc(N2C[C@@H](C(=O)NC3CCCCC3)CC[C@H]2C)n1
# Method in brief: as §1
# encorafenib = compound: COC(=O)N[C@@H](C)CNc1nccc(-c2cn(C(C)C)nc2-c2cc(Cl)cc(NS(C)(=O)=O)c2F)n1 [encorafenib]
# Method in brief: as §1
# [3] = compound: COC(=O)[C@H](CCSC)NC(=O)C1=C(C=C(C=C1)NC[C@H](CS)N)C2=CC=CC=C2
# Method in brief: as §1
# [4] = compound: COC1=CC=C(C=C1)CN2C=CC3=C2C=C(C=C3)C(=O)NO
# Method in brief: as §1
# filanesib = compound: CON(C)C(=O)N1N=C(c2cc(F)ccc2F)S[C@@]1(CCCN)c1ccccc1 [filanesib]
# Method in brief: as §1
# zotarolimus = compound: CO[C@H]1C[C@@H]2CC[C@@H](C)[C@@](O)(O2)C(=O)C(=O)N2CCCC[C@H]2C(=O)O[C@H]([C@H](C)C[C@@H]2CC[C@H](n3cnnn3)[C@H](OC)C2)CC(=O)[C@H](C)/C=C(\C)[C@@H](O)[C@@H](OC)C(=O)[C@H](C)C[C@H](C)/C=C/C=C/C=C/1C [zotarolimus]
# Method in brief: as §1
# idasanutlin = compound: COc1cc(C(=O)O)ccc1NC(=O)[C@@H]1N[C@@H](CC(C)(C)C)[C@](C#N)(c2ccc(Cl)cc2F)[C@H]1c1cccc(Cl)c1F [idasanutlin]
# Method in brief: as §1
# alisertib = compound: COc1cc(Nc2ncc3c(n2)-c2ccc(Cl)cc2C(c2c(F)cccc2OC)=NC3)ccc1C(=O)O [alisertib]
# Method in brief: as §1
# [5] = compound: COc1cc2nc(-c3cc(F)ccc3O)nc(N[C@@H]3CNC[C@H]3C(C)(C)O)c2cc1OC
# Method in brief: as §1
# gefitinib = compound: COc1cc2ncnc(Nc3ccc(F)c(Cl)c3)c2cc1OCCCN1CCOCC1 [gefitinib]
# Method in brief: as §1
# [6] = compound: COc1cccc2cc(-c3nc([C@H]4CC[C@H](C(=O)O)CC4)n4ncnc(N)c34)[nH]c12
# Method in brief: as §1
# lapatinib = compound: CS(=O)(=O)CCNCc1ccc(-c2ccc3ncnc(Nc4ccc(OCc5cccc(F)c5)c(Cl)c4)c3c2)o1 [lapatinib]
# Method in brief: as §1
# pictilisib = compound: CS(=O)(=O)N1CCN(Cc2cc3nc(-c4cccc5[nH]ncc45)nc(N4CCOCC4)c3s2)CC1 [pictilisib]
# Method in brief: as §1
Target,log2 fold change (saracatinib),log2 fold change (sotrastaurin),log2 fold change (alvocidib),log2 fold change (Tubastatin A),log2 fold change [1],log2 fold change (defactinib),log2 fold change (rucaparib),log2 fold change [2],log2 fold change (encorafenib),log2 fold change [3],log2 fold change [4],log2 fold change (filanesib),log2 fold change (zotarolimus),log2 fold change (idasanutlin),log2 fold change (alisertib),log2 fold change [5],log2 fold change (gefitinib),log2 fold change [6],log2 fold change (lapatinib),log2 fold change (pictilisib)
PRXL2B isoform 3 (UniProt Q8TBF2),inactive: 0.061,inactive: -0.077,inactive: 0.008,inactive: -0.016,inactive: -0.011,inactive: -0.058,inactive: -0.031,inactive: -0.082,inactive: 0.003,inactive: 0.051,inactive: 0.18,inactive: -0.063,inactive: -0.11,inactive: -0.039,inactive: -0.052,inactive: -0.028,inactive: -0.013,inactive: -0.006,inactive: -0.011,inactive: 0.034
PTGES2 (UniProt Q9H7Z7),inactive: 0.061,inactive: 0.019,inactive: 0.072,inactive: -0.055,inactive: 0.015,inactive: -0.023,inactive: -0.015,inactive: -0.037,inactive: -0.006,inactive: 0.01,inactive: -0.04,inactive: -0.103,inactive: -0.028,inactive: -0.014,inactive: -0.011,inactive: -0.121,inactive: 0.019,inactive: 0.065,inactive: 0.013,inactive: 0.009
PSTPIP2 (UniProt Q9H939),inactive: -0.051,inactive: -0.096,inactive: 0.019,inactive: 0.053,inactive: 0.049,inactive: -0.103,inactive: 0.131,inactive: 0.038,inactive: 0.077,inactive: -0.02,inactive: 0.035,inactive: -0.046,inactive: 0.021,inactive: -0.052,inactive: 0.003,inactive: 0.056,inactive: 0.025,inactive: -0.028,inactive: -0.022,inactive: 0.073
PTAR1 (UniProt Q7Z6K3),inactive: 0.015,inactive: 0.071,inactive: -0.062,inactive: -0.011,inactive: 0.015,inactive: -0.139,inactive: -0.117,inactive: -0.007,inactive: 0.01,inactive: 0.142,inactive: -0.073,inactive: 0.061,inactive: 0.041,inactive: -0.037,inactive: 0.064,inactive: 0.013,inactive: 0.026,inactive: 0.128,inactive: 0,inactive: 0.018
QSOX2 (UniProt Q6ZRP7),inactive: 0.043,inactive: -0.005,inactive: -0.018,inactive: -0.047,inactive: 0.018,inactive: -0.073,inactive: -0.07,inactive: 0.001,inactive: 0.033,inactive: -0.034,inactive: -0.001,inactive: -0.106,inactive: -0.046,inactive: 0.013,inactive: 0.013,inactive: -0.124,inactive: -0.061,inactive: 0.084,inactive: 0.021,inactive: 0.074
PRTFDC1 (UniProt Q9NRG1),inactive: 0.031,inactive: 0.055,inactive: 0.03,inactive: -0.024,inactive: -0.022,inactive: 0.017,inactive: -0.04,inactive: -0.039,inactive: -0.025,inactive: 0.035,inactive: 0.049,inactive: -0.069,inactive: 0.001,inactive: -0.027,inactive: -0.148,inactive: 0.015,inactive: 0.017,inactive: 0.034,inactive: 0.068,inactive: -0.002
PTCD3 (UniProt Q96EY7),inactive: -0.029,inactive: -0.095,inactive: -0.035,inactive: 0.034,inactive: 0.036,inactive: 0.038,inactive: 0.076,inactive: 0.127,inactive: 0.058,inactive: -0.047,inactive: 0.038,inactive: 0.026,inactive: 0.131,inactive: -0.174,inactive: -0.034,inactive: -0.047,inactive: -0.006,inactive: -0.047,inactive: 0.184,inactive: 0.005
PUM2 (UniProt Q8TB72),inactive: -0.014,inactive: 0.022,inactive: -0.03,inactive: -0.011,inactive: 0.001,inactive: 0.043,inactive: 0.092,inactive: -0.137,inactive: -0.023,inactive: -0.038,inactive: -0.028,inactive: 0.057,inactive: 0.008,inactive: 0.023,inactive: 0.066,inactive: 0.014,inactive: -0.017,inactive: -0.016,inactive: 0.041,inactive: -0.052
PTMS (UniProt P20962),inactive: 0.035,inactive: -0.003,inactive: 0,inactive: 0.032,inactive: -0.008,inactive: -0.047,inactive: -0.038,inactive: -0.028,inactive: -0.031,inactive: -0.011,inactive: 0.081,inactive: -0.062,inactive: -0.029,inactive: 0.025,inactive: -0.071,inactive: -0.149,inactive: -0.013,inactive: 0.018,inactive: 0.051,inactive: 0.02
PSIP1 (UniProt O75475),inactive: -0.056,inactive: -0.032,inactive: 0.092,inactive: -0.052,inactive: 0.011,inactive: 0.104,inactive: 0.195,inactive: 0.03,inactive: 0.075,inactive: 0.037,inactive: -0.051,inactive: 0.151,inactive: -0.002,inactive: 0.13,inactive: -0.084,inactive: 0.013,inactive: -0.032,inactive: -0.051,inactive: -0.008,inactive: -0.033
PSAT1 (UniProt Q9Y617),inactive: 0.072,inactive: 0.011,inactive: 0.021,inactive: -0.014,inactive: -0.014,inactive: 0.015,inactive: -0.052,inactive: -0.011,inactive: -0.015,inactive: 0.045,inactive: 0.029,inactive: -0.055,inactive: -0.029,inactive: 0.004,inactive: -0.079,inactive: -0.023,inactive: -0.006,inactive: 0.008,inactive: -0.019,inactive: -0.018
PSME2 (UniProt Q9UL46),inactive: 0.023,inactive: -0.014,inactive: -0.015,inactive: -0.144,inactive: -0.016,inactive: 0.032,inactive: -0.069,inactive: -0.049,inactive: 0.033,inactive: 0.047,inactive: -0.095,inactive: -0.037,inactive: 0.002,inactive: -0.021,inactive: -0.042,inactive: -0.067,inactive: 0.024,inactive: 0.007,inactive: -0.017,inactive: -0.035
PTP4A1 (UniProt Q93096),inactive: -0.058,inactive: 0.061,active: -0.34,inactive: 0.036,inactive: 0.02,active: -0.447,inactive: -0.038,inactive: 0.04,inactive: -0.027,inactive: 0.029,inactive: 0.009,inactive: -0.088,inactive: 0.05,inactive: 0.089,inactive: -0.129,active: -0.267,inactive: 0.033,inactive: 0.04,inactive: 0.024,inactive: 0.068
PSPH (UniProt P78330),inactive: -0.02,inactive: 0.053,inactive: 0.014,inactive: 0.001,inactive: -0.027,inactive: -0.036,inactive: 0.015,inactive: -0.021,inactive: -0.022,inactive: -0.021,inactive: 0.016,inactive: -0.035,inactive: 0.036,inactive: -0.033,inactive: -0.041,inactive: 0.071,inactive: -0.005,inactive: 0.085,inactive: -0.048,inactive: 0.094
PUS7 isoform 2 (UniProt Q96PZ0),inactive: -0.042,inactive: -0.05,inactive: -0.052,inactive: -0.009,inactive: -0.012,inactive: -0.058,inactive: 0.044,inactive: -0.037,inactive: 0.017,inactive: 0.015,inactive: -0.044,inactive: -0.026,inactive: -0.007,inactive: 0.002,inactive: -0.077,inactive: -0.007,inactive: 0.061,inactive: -0.03,inactive: -0.018,inactive: 0.044
PUDP isoform 4 (UniProt Q08623),inactive: 0.043,inactive: -0.027,inactive: -0.03,inactive: -0.039,inactive: -0.042,inactive: -0.014,inactive: -0.059,inactive: -0.015,inactive: -0.047,inactive: -0.036,inactive: 0.127,inactive: -0.042,inactive: 0.01,inactive: -0.012,inactive: 0.021,inactive: -0.05,inactive: -0.002,inactive: 0.016,inactive: 0.072,inactive: -0.007
